Biological target: T1, Opiate (Delta) (Rattus norvegicus, UniProt P33533)
T1 construct: Rat forebrain membranes; from tissue; host or cells: rat forebrain membranes
Assay: Opiate (Delta) Binding Assay

Protein sequences, listed by entry. Tags and fused reporters are not part of them.
UniProt P33533, whole entry: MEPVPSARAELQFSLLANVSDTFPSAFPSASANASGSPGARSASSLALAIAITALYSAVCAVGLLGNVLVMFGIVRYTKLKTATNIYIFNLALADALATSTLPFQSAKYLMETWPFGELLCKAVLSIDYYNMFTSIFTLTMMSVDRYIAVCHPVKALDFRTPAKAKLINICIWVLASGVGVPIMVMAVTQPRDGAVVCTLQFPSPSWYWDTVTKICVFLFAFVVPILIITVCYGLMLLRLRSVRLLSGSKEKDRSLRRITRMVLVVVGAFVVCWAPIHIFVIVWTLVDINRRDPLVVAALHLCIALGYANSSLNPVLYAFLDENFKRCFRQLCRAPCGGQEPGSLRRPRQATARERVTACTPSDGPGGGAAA

Oc1ccc2c3c1O[C@H]1[C@@H](O)CC[C@@]4(O)[C@@H](C2)N(CC2CCC2)CC[C@]314 [Nalbuphine]
Ki: 0.124 µM
